Library screening results

Chains of the proteins cited; added tags and fusions are not shown.
UniProt E9BF75, entry or part of it: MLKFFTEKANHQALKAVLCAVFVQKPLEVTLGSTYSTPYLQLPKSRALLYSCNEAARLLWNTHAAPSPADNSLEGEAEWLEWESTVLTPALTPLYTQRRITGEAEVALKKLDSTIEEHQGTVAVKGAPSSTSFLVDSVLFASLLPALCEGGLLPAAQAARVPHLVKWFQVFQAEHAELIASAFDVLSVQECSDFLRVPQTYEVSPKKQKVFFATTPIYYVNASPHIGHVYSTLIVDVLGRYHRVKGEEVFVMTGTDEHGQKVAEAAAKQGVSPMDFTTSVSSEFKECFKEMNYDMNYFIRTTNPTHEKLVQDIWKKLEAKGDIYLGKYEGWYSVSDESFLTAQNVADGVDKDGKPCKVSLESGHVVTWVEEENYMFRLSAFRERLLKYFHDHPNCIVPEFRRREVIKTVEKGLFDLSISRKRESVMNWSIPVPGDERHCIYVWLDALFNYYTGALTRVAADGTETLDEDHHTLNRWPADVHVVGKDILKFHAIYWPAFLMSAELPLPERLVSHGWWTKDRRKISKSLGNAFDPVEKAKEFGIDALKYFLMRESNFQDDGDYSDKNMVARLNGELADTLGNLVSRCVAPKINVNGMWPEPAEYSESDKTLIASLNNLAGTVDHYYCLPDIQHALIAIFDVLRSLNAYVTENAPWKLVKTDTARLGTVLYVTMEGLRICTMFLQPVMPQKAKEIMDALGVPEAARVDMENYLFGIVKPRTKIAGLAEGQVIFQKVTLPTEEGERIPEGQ

Measurements from “University of Dundee, Small-Polar-MMV Screening Library” (2021), ChEMBL document CHEMBL3988442.

Mtb heat-shock: 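Assay on Mycobacterium tuberculosis, filed only as a heat shock assay from Cornell; the read-out is not stated. The concentration is filed as 10 mM, unlikely as a test dose, so the dose is not known. The record gives no direction; compounds that gave an IC50 in retests scored well above the rest, so higher reads as stronger inhibition. About 69,000 compounds were tested under these conditions; 1.4% (about 930) showed 50% or more at least once.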
Mtb growth Cornell: 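Whole-cell assay for inhibitors of Mycobacterium tuberculosis growth, labelled Cornell in the record; the read-out is not stated. The concentration is filed as 10 mM, unlikely as a test dose, so the dose is not known. Higher means stronger inhibition (inferred from two other growth screens of the library). Of about 53,000 compounds tested this way, about 900 (1.7%) reached 50% or more in at least one test.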
LdMetRS: 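Primary screen of methionyl-tRNA synthetase; the read-out is not stated. Target: Methionyl-tRNA synthetase (putative), Leishmania donovani (UniProt E9BF75). The test concentration is not given. Values are per cent inhibition. Size under these conditions: about 68,000 compounds, about 24 of them at 50% or above in at least one test.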

All values are in %. How 0% and 100% were set is not recorded. Most values in the screen are low, and negative values occur. The compounds are a random part of those screened. A dash means the value is not listed here; it may have been measured.

CS(=O)(=O)N1CCOCC2(CCN(C(=O)c3ccco3)CC2)C1 gave Mtb heat-shock: -27.34%; Mtb growth Cornell: -4.367%; LdMetRS: -15%.
Cc1ccc(CN2CC[C@H]3C[C@H](c4nc(C5CC5)cs4)O[C@@H]3C2)o1 gave LdMetRS: 12.9%.
COc1ccc(CCC2CCCCN2)cc1.Cl (centres unmarked) gave Mtb heat-shock: -16.14%; Mtb growth Cornell: 0.5348%.
O=S(=O)(c1cnccc1N1CCN(CCO)CC1)N1CCCCC1 gave Mtb heat-shock: -9.231%; LdMetRS: 14.92%.
[H][C@]12CC[C@]([H])(CN(C(=O)N(C)C)C1)N(C(=O)CCCn1cncn1)C2 gave Mtb heat-shock: 5.24%.
Cc1csc(N2CCN(C(=O)CCCNc3ncccn3)CC2)n1 gave Mtb heat-shock: -0.8639%; LdMetRS: 16.26%.
Cc1ccccc1-n1nc(C)c(CN(C)C(C)Cc2ccccn2)c1C (centres unmarked) gave LdMetRS: 8.438%.
CCNC(c1cccnc1)c1cc(C)cc(C)c1 (centres unmarked) gave Mtb heat-shock: -26.49%; LdMetRS: 15.97%.
Cc1cccc(OCCCNC(=O)Cn2ccc(C)cc2=O)c1 gave Mtb heat-shock: 9.396%; Mtb growth Cornell: 17.23%; LdMetRS: 18.32%.
CN(C)c1ncccc1C(=O)N1CCc2c(ncn2C2CC2)C1 gave Mtb heat-shock: 3.774%; Mtb growth Cornell: 16.81%; LdMetRS: 15.26%.
Cc1csc(CCCNc2ccc(S(N)(=O)=O)cc2C#N)n1 gave Mtb heat-shock: 7.196%; Mtb growth Cornell: 24.2%; LdMetRS: 18.48%.
CO[C@H]1CNC[C@@H]1NC(=O)c1cc(C)nc2c(C)cc(C)cc12 gave Mtb heat-shock: -9.779%; Mtb growth Cornell: 4.522%; LdMetRS: 14.25%.
COCc1nc(Cn2ncn3cccc3c2=O)no1 gave Mtb heat-shock: 5.643%; LdMetRS: 16.12%.
Cn1cc(C2COC3(CCN(C(=O)c4cnccn4)CC3)C2)cn1 (centres unmarked) gave Mtb heat-shock: 13.14%; Mtb growth Cornell: -23.9%; LdMetRS: 3.98%.
COc1ccc(OCCc2cc(C3CNCCO3)nn2C)cc1 (centres unmarked) gave Mtb heat-shock: -10.35%; Mtb growth Cornell: -28.91%; LdMetRS: 2.66%.
Cc1cc(C)cc(OCC(=O)N2CCCC2)c1 gave Mtb heat-shock: 33.18%; Mtb growth Cornell: 14.17%; LdMetRS: 13.31%.
COCC(=O)N1CCC2(CC1)c1ccccc1[C@@H](N1CCSCC1)[C@@H]2O gave Mtb heat-shock: 0.828%; Mtb growth Cornell: -20.37%; LdMetRS: 3.846%.
COc1cc(N2CCCC(c3nccn3CCN(C)C)C2)nc(N)n1 (centres unmarked) gave Mtb heat-shock: 1.443%; Mtb growth Cornell: 15.09%; LdMetRS: 7.407%.
COc1ccc(OCc2nc(C(=O)NCCN3CCOCC3)co2)cc1 gave Mtb heat-shock: -9.402%; Mtb growth Cornell: 17.11%; LdMetRS: 13.11%.
CS(=O)(=O)Cc1ccc(C(=O)Nc2ccc3c(c2)C(=O)NC3)cc1 gave Mtb heat-shock: -7.159%; Mtb growth Cornell: 2.148%; LdMetRS: 17.01%.
Cc1cc(C(N)=O)nc(C2(C)CCCN2Cc2cnn(C)c2)n1 (centres unmarked) gave Mtb heat-shock: -10.35%; Mtb growth Cornell: -6.965%; LdMetRS: 5.145%.
CCN(CC1CCOC1)C(=O)c1cc(OC)c2c(c1)OCCO2 (centres unmarked) gave Mtb heat-shock: -5.4%; Mtb growth Cornell: 9.218%; LdMetRS: 15.66%.
O=C(CN1C(=O)CCNC1=O)N1CCOC(c2ccc(F)cc2)C1 (centres unmarked) gave Mtb heat-shock: 12.93%; Mtb growth Cornell: -10.45%; LdMetRS: 9.639%.
CC(C)C(=O)Nc1ccc(Oc2ccc3c(c2)OCO3)nc1 gave Mtb heat-shock: -8.532%; Mtb growth Cornell: 24%; LdMetRS: 14.4%.
CCn1cc(CN2CCCN(C(=O)CCc3ccccc3)CC2)cn1 gave Mtb heat-shock: -14.91%; Mtb growth Cornell: -0.8409%; LdMetRS: 12.82%.
O=C(c1ccoc1)N1CCC2(CC1)C(=O)Nc1ccccc12 gave Mtb heat-shock: -10.43%; Mtb growth Cornell: -23.64%; LdMetRS: 7.807%.
Cn1c(N)nnc1SCc1c(F)cccc1Br gave Mtb heat-shock: -17.26%; LdMetRS: 13.24%.
Cc1ccc(CN2CCC3(CCCN3S(C)(=O)=O)CC2)s1 gave LdMetRS: 16.25%.
Cc1cnc(CN(Cc2ccccc2)CC2CCOCC2)cn1 gave Mtb heat-shock: -4.21%; Mtb growth Cornell: -9.714%; LdMetRS: 9.913%.
COC[C@]1(O)CCN(c2cc(C3CC3)ncn2)CC1(C)C gave Mtb heat-shock: 16.28%; Mtb growth Cornell: -32.64%; LdMetRS: 10.3%.
CCC(=O)N1CCC(c2nnc(Cn3cncn3)n2C2CC2)CC1 gave Mtb heat-shock: 3.006%; Mtb growth Cornell: -5.097%; LdMetRS: 4.425%.
O=C(Nc1cccc(C(F)F)c1)N[C@@H]1C=C[C@H](CO)C1 gave Mtb heat-shock: -6.477%; Mtb growth Cornell: 13.8%; LdMetRS: 11.35%.

4 of the entries, repeated:

| SMILES | Mtb heat-shock | Mtb growth Cornell | LdMetRS |
|---|---|---|---|
| `Cc1csc(N2CCN(C(=O)CCCNc3ncccn3)CC2)n1` | -0.8639 | - | 16.26 |
| `CN(C)c1ncccc1C(=O)N1CCc2c(ncn2C2CC2)C1` | 3.774 | 16.81 | 15.26 |
| `Cc1cccc(OCCCNC(=O)Cn2ccc(C)cc2=O)c1` | 9.396 | 17.23 | 18.32 |
| `COc1ccc(OCc2nc(C(=O)NCCN3CCOCC3)co2)cc1` | -9.402 | 17.11 | 13.11 |